Results from US20220119492A1.
These are yes or no findings as the source states them, for the method shown. Some binding calls cover weakened binding; strength is not graded here. Sequences can lack the tags named with a protein.

What was measured:
[1] = molecular target: T1, human IL-2Rβ (CD122 protein, Fc Tag) (27-239) (human) (UniProt P14784); assay: competition ELISA; competitor: phage clone SEQ ID NO 170
T1 sequence (looked up): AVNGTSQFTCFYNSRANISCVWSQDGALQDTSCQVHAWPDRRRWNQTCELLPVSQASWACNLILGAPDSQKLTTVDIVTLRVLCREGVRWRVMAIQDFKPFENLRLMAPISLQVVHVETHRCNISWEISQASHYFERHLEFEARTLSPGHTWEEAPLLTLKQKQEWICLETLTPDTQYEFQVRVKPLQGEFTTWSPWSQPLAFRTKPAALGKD

[2] = molecular target: T1, human IL-2Rβ (CD122 protein, Fc Tag) (27-239) (human); assay: competition ELISA; competitor: phage clone SEQ ID NO 1034
[3] = molecular target: T1, human IL-2Rβ (CD122 protein, Fc Tag) (27-239) (human); assay: competition ELISA; competitor: phage clone SEQ ID NO 58
[4] = molecular target: T1, human IL-2Rβ (CD122 protein, Fc Tag) (27-239) (human); assay: competition ELISA; competitor: phage clone SEQ ID NO 83

Measured: binding

NMCLVGDYWPSCQI [IL-2Rβ ligand SEQ ID NO: 169]
binds: all assays above
